Data as given in PubChem BioAssay AID652272 (Drosophila RNAi Screening Center, 2013).

Aim: 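Finding fly genes that regulate Hedgehog signal transduction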 (primary screen)
Cell system: Drosophila clone 8 (Cl8) cells
Reagent: long dsRNA against Drosophila genes
Detection: 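Plate reader light from a firefly reporter under a ptc promoter fragment that responds to Hedgehog, with Renilla light as transfection reference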
Direction: firefly Hh reporter signal: higher = more ptc reporter light; Renilla reference signal: higher = more Renilla control light
Hit rule: 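Hit when the z-score averaged over two replicates is under -2 or over +3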
Meaning of the calls: active = hit: reporter lowered or raised; inactive = not a hit
The screen tested about 21,000 reagents; shown is a random part of those that have a named target and a result. In the full data, 503 (2.4%) were called active. 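Raw plate light values, not normalised; calls rest on replicate z-scores that were not deposited; hits include reporter decreases as well as increases.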 Unmarked entries are inactive. Reagents against one gene are numbered here. Not stated in the record: the amount of reagent, the time to read-out.

gene knocked down	reagent	firefly Hh reporter signal, replicate 1	firefly Hh reporter signal, replicate 2	firefly Hh reporter signal, replicate 3	Renilla reference signal, replicate 1	Renilla reference signal, replicate 2
CR33319	1	1.82e5	3.62e5		4340	16753
CG14563	1	1.26e5	93892		4281	3043
Acp63F	1	83061	51296		2497	3597
CR11023	1	1.48e5	85383		3548	1960
CG31224	1	3.80e5	82992		3641	3641
CG31224	2	1.18e5	1.00e5		3753	3888
CG14968	1	1.37e5	57072		5360	3829
mRpS28	1	1.33e5	67508		3360	4475
CG14089	1	82448	1.02e5		3012	2832
Arp53D	1	1.14e5	46576		2940	2547
CG10559	1	5.06e5	66706		30151	1696
CG32687	1	81322	1.48e5		2748	7632
CG32687	2	66104	1.78e5		2258	6992
sinah	1	1.99e5			7292	5467
Elo68beta	1	71530	60432	58435	5480	3801
Cpr49Af	1	60361	56996		1676	4058
CG16739	1	73926	54122		1659	1680
CG31809	1	97802	2.67e5		2996	11988
SMSr	1	1.62e5	1.24e5		6645	4853
SMSr	2	71873	46892		9493	3424
CG13970	1	65894	52057		1792	4631
CG15435	1	83393	39988		2452	4509
Uros2	1	1.01e5	81058		3458	2231
zfh2	1	79800	62531		2065	2125
Ns1	1	49873	54512		1605	1989
Brd	1	80720			1811	2457
CG42450	1	64933	1.44e5		1568	5997
cni	1	1.87e5	55284		4384	3458
mRpL45	1	5.24e5	1.07e5		25968	3386
CG7091	1	2508	1.49e5		648	2500
CG7091	2	92634	96869		1384	2429
l(1)G0469	1	1.45e5	99724		3237	2597
l(1)G0469	2	67496	1.68e5		1925	8056
smash	1	1.27e5	90659		4684	1916
smash	2	1.25e5	80480		4568	2038
smash	3	88857	1.47e5		2336	4273
smash	4	1.30e5	1.92e5		3997	5288
Nrd1	1	1.14e5	70929		2795	1750
CG33704	1	1.09e5	2.30e5		3059	11285

3 entries already listed, ordered by “Renilla reference signal, replicate 2”, highest first:
gene knocked down	reagent	firefly Hh reporter signal, replicate 1	firefly Hh reporter signal, replicate 2	firefly Hh reporter signal, replicate 3	Renilla reference signal, replicate 1	Renilla reference signal, replicate 2
smash	3	88857	1.47e5		2336	4273
smash	2	1.25e5	80480		4568	2038
smash	1	1.27e5	90659		4684	1916
